The exact form of at least one protein or probe is not confirmed. Results from cells or extracts need not show a direct contact. No signal at the amounts used counts as a negative. For part of these data: At least one verdict rests on a figure or table, not on a statement of the authors. For part of these data: The comparison behind a weaker result is the experiment's own reference, which may not be listed here.
Key:
[1] = target: Transferrin receptor 1 (TfR, CD71) (Homo sapiens) (UniProt P02786); experiment: flow cytometry cell binding; settings: PBS, 4.5 g/L glucose, 5 mM MgCl2, 1 mg/mL BSA, 0.1 mg/mL herring sperm DNA, 30 min on ice (4 C), intact cells
[2] = target: Transferrin receptor (Chinese hamster, CHO-K1 cells) (Cricetulus griseus) (UniProt Q07891); experiment: flow cytometry cell binding; settings: CHO-K1 cells; PBS, 4.5 g/L glucose, 5 mM MgCl2, 1 mg/mL BSA, 0.1 mg/mL herring sperm DNA; 30 min on ice (4 C); intact cells, flow cytometry; protein on the cell surface; label: 5' fluorophore (FITC, FAM, Cy5 or AF647); folded or branched DNA
[3] = target: Transferrin receptor (mouse, 4T1 cells) (Mus musculus) (UniProt Q62351); experiment: flow cytometry cell binding; settings: 4T1 cells; PBS, 4.5 g/L glucose, 5 mM MgCl2, 1 mg/mL BSA, 0.1 mg/mL herring sperm DNA; 30 min on ice (4 C); intact cells, flow cytometry; protein on the cell surface; label: 5' fluorophore (FITC, FAM, Cy5 or AF647); folded or branched DNA
[4] = target: Transferrin receptor (rat, PC-12 cells) (Rattus norvegicus) (UniProt Q99376); experiment: flow cytometry cell binding; settings: PC-12 cells; PBS, 4.5 g/L glucose, 5 mM MgCl2, 1 mg/mL BSA, 0.1 mg/mL herring sperm DNA; 30 min on ice (4 C); intact cells, flow cytometry; protein on the cell surface; label: 5' fluorophore (FITC, FAM, Cy5 or AF647); folded or branched DNA
[5] = target: Transferrin receptor 1 (TfR, CD71) (Homo sapiens) (UniProt P02786); experiment: competition (flow cytometry); settings: HeLa cells, 200 nM aptamer, PBS, 4.5 g/L glucose, 5 mM MgCl2, 1 mg/mL BSA, 0.1 mg/mL herring sperm DNA, 30 min on ice (4 C), intact cells, protein on the cell surface, label: 5' fluorophore (FITC, FAM, Cy5 or AF647), folded or branched DNA
[6] = HCT-8T cells, end truncation, flow cytometry, protein on the cell surface, label: 5' fluorophore, folded or branched DNA

Amino acid sequences for entries named in this document (tags omitted).
UniProt Q07891, whole entry: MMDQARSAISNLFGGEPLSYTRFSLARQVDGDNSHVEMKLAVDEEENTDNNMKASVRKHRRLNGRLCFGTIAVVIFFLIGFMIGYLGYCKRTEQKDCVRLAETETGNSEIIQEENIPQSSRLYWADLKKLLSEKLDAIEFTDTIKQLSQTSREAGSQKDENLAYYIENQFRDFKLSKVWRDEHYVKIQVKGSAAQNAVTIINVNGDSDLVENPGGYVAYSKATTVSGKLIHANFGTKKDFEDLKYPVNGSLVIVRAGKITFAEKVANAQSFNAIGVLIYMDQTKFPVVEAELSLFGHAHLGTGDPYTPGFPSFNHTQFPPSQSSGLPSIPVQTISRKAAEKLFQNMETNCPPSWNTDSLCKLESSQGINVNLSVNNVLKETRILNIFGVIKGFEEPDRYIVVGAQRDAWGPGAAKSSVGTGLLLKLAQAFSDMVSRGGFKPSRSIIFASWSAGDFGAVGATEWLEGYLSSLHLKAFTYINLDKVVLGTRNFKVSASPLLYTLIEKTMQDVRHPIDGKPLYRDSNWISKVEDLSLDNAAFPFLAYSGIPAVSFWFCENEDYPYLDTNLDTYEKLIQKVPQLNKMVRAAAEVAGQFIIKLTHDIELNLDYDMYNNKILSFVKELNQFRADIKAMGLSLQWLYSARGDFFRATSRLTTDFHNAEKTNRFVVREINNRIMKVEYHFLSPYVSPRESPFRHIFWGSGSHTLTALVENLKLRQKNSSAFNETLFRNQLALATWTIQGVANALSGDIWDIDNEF
UniProt Q62351, whole entry: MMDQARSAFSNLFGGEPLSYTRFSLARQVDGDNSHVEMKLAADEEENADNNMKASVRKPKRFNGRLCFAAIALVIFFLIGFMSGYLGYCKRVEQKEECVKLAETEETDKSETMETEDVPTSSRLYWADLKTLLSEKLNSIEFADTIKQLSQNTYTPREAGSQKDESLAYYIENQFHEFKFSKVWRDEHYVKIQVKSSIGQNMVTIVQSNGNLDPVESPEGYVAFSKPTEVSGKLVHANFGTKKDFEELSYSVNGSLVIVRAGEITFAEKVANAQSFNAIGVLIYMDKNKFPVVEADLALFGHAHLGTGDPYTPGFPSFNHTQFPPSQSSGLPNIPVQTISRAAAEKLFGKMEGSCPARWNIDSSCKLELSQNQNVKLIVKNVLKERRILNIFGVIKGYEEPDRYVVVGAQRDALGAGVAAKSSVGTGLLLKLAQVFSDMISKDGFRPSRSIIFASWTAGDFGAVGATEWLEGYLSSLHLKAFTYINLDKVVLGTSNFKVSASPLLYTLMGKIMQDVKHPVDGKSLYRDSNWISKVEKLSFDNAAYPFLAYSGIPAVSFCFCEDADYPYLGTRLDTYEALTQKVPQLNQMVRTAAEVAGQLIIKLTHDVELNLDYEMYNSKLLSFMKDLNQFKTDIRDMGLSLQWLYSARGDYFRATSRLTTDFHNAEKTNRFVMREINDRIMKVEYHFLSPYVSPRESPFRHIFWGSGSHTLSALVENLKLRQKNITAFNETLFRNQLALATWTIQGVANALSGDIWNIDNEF
UniProt Q99376, whole entry: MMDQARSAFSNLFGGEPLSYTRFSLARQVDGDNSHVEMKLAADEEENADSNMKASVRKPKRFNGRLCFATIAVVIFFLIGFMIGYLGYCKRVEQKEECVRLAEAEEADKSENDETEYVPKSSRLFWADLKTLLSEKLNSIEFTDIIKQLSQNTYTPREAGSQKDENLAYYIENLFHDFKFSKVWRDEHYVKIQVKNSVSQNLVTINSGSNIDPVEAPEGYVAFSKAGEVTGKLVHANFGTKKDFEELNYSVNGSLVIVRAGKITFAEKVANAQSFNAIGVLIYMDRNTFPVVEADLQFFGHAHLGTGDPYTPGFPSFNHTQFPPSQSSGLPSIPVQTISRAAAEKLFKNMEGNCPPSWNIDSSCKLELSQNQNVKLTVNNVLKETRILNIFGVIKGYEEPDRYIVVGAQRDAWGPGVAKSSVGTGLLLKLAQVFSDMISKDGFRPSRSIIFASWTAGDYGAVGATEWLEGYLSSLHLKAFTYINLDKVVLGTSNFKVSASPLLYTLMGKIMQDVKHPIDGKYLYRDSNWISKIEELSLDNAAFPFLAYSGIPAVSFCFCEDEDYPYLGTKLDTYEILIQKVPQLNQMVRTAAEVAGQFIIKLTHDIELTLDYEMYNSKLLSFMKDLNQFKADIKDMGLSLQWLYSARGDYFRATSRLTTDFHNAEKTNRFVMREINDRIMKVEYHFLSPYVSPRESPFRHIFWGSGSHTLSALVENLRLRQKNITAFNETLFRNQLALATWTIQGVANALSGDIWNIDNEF

**Q.** Does “AGAGCAGCGTGGAGGATAGTTGGGGTTTGGCAAGTATTG [ctr sq]” bind ([1]; negative control, Jurkat and HeLa cells, flow cytometry, protein on the cell surface, label: 5' fluorophore, single-stranded DNA)?
**A.** no binding

**Q.** Does “AGGAGCAGCGTGGAGGATAGGGATTCTGTTGGTCGGCTGGTTGGTATCC [HG1-3]” bind [1, 6]?
**A.** binds

**Q.** Does “AGGAGCAGCGTGGAGGATAGGGATTCTGTTGGTCGGCTGGTTGGTATCCTTAGGGTGTG [HG1-1]” bind [1, 6]?
**A.** binds

**Q.** Does “AGGAGCAGCGTGGAGGATGTTGGTCGGCTGGTTGGTATCCTTAGGGTGTG [HG1-2]” bind ([1]; HCT-8T cells, middle deletion, flow cytometry, protein on the cell surface, label: 5' fluorophore, folded or branched DNA)?
**A.** no binding

**Q.** Does “GGATAGGGATTCTGTTGGTCGGCTGGTTGGTATCC [HG1-9]” bind [2]?
**A.** no binding

**Q.** Does “GGATAGGGATTCTGTTGGTCGGCTGGTTGGTATCC [HG1-9]” bind [3]?
**A.** no binding

**Q.** Does “GGATAGGGATTCTGTTGGTCGGCTGGTTGGTATCC [HG1-9]” bind [4]?
**A.** no binding

**Q.** Does “GGATAGGGATTCTGTTGGTCGGCTGGTTGGTATCC [HG1-9]” bind ([1]; EDTA, flow cytometry, protein on the cell …, label: 5' fluorophore (FITC, FAM, Cy5 or AF647), folded or branched DNA)?
**A.** binds more weakly

**Q.** Does “GGATAGGGATTCTGTTGGTCGGCTGGTTGGTATCC [HG1-9]” bind ([1]; no MgCl2, flow cytometry, protein on the cell surface, label: 5' fluorophore (FITC, FAM, Cy5 or AF647), folded or branched DNA)?
**A.** binds more weakly

**Q.** Does “GGATAGGGATTCTGTTGGTCGGCTGGTTGGTATCC [HG1-9]” bind ([5]; 500 nM bovine transferrin)?
**A.** binds

**Q.** Does “GGATAGGGATTCTGTTGGTCGGCTGGTTGGTATCC [HG1-9]” bind ([5]; 500 nM holo-hTf competitor)?
**A.** no binding

**Q.** Does “GGCGACGGATTCTGTTGGTCGGCTGGTTGGTCGCC [HG1-11]” bind ([1]; loop L1 mutant, binding lost, flow cytometry, protein on the cell surface, label: 5' fluorophore, folded or branched DNA)?
**A.** no binding

**Q.** Does “GGCGAGGGATTCTGTTGGTCGGCTGGTTGGTCGCC [HG1-10]” bind ([1]; stem S1 mutant, slightly affected, flow …, protein on the cell surface, label: 5' fluorophore, folded or branched DNA)?
**A.** binds

**Q.** Does “GTGGAGGATAGGGATTCTGTTGGTCGGCTGGTTGGTATCC [HG1-8]” bind [1, 6]?
**A.** binds

**Q.** Does “GTGGAGGATAGGGATTCTGTTGGTCGGCTGGTTGGTATCCTTAGGGTGTG [HG1-4]” bind [1, 6]?
**A.** binds
